Results reported in patent publication US20190289834A1, “ANIMAL MODELS FOR PSORIASIS AND SCREENING METHODS” (U.S. GOVERMENT AS REPRESENTED BY THE DEPARTMENT OF VETERANS …, priority 2016, published 2019).
At least one compound was matched to its structure with a doubt left.

Legend:
[1] = test system: Rac1V12 transgenic mouse model of psoriasis; assay: Rac1V12 transgenic mouse model of psoriasis, systemic intraperitoneal injections; format: in vivo
Rac1 V12 mice = Rac1 V12 mice implanted with osmotic pumps for 28 days; format: in vivo, mouse; settings: osmotic pump
[2] = RT-qPCR, intraperitoneal, EOD 20 injections
[3] = intraperitoneal, EOD 20 injections, treated skin

In the case of `NC(=NCc1ccccc1)NC(=O)c1nc(Cl)c(N)nc1N` [benzamil, Benzamil], the “mRNA expression of keratin 16” value [1, 2] was “reduced”, the “mRNA expression of s100a7” value [1, 2] was “reduced” and the “mRNA expression of tnfa” value [1, 2] was “reduced”. For the same molecule, the “CD3+ skin infiltrating T cells” value [1, 3] was “reduced”, the “epidermal Ki67” value [1, 3] was “reduced” and the “epidermal TGFα” value [1, 3] was “reduced”. The “epidermal phospho-STAT3” value [1, 3] was “reduced”, the “epidermal phospho-relA” value [1, 3] was “reduced” and the “clinical signs (scaling, erythema and edema on muzzle and ears, healing of tail lesions)” value ([1]; intraperitoneal, EOD 20 injections, vs saline control) was “marked signs of improvement”. The “epidermal hyperproliferation of treated skin” value ([1]; intraperitoneal, EOD 20 injections, in a dose dependent fashion) was “reduced”, the Rac1GTP in skin ([1]; treated mice compared to vehicle control, comparable to wildtype mice skin outside of K14+ layers) was “reduced” and the epidermal thickness (Rac1 V12 mice; constant release, compared to vehicle) was “significantly reduced”. For the same molecule, the “CD3+ skin infiltrating cells” value (Rac1 V12 mice; vs vehicle) was “significantly reduced”, the “NFκB signaling in whole skin lysates” value (Rac1 V12 mice; vs vehicle) was “normalized” and the “STAT3 signaling in whole skin lysates” value (Rac1 V12 mice; vs vehicle) was “reduced”. For the same molecule, the suprabasal proliferation (Rac1 V12 mice; vs vehicle) was “significantly reduced”.
